PubChem BioAssay AID493246 | Drosophila RNAi Screening Center | 2011
The screen tested about 21,000 reagents; this is an unselected part of those with a known target gene and a result. Of all reagents, 429 (2%) were called active. 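Values are raw and not normalised between plates; calls rest on per-plate z-scores that were not deposited.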 Unmarked entries are inactive. Not stated in the record: the amount of reagent, the time to read-out.

- Aim: 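Identify essential fly genes by loss of cell viability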 (primary screen)
- Cells: Drosophila Kc and S2R+ cells
- Reagents: long dsRNA against Drosophila genes
- Read-out: 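Raw, unnormalised count of remaining cells in each well; per-plate z-scores of cell number underlie the calls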
- Reading the numbers: Kc cell number and S2R+ cell number: higher = more cells remaining
- Call rule: 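Counted as a hit if cell number falls by a z-score of at least 3 within its plate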

Against LysP (GeneID 38129), the values are Kc cell number, rep 1 = 1.51e6; Kc cell number, rep 2 = 1.39e6; S2R+ cell number, rep 1 = 9.81e5; S2R+ cell number, rep 2 = 1.31e6. After knock-down of CG13324 (GeneID 36434), the screen gave Kc cell number, rep 1 = 1.51e6; Kc cell number, rep 2 = 1.55e6; S2R+ cell number, rep 1 = 1.28e6; S2R+ cell number, rep 2 = 1.42e6. Jon44E (GeneID 35853) gave Kc cell number, rep 1 = 1.59e6; Kc cell number, rep 2 = 1.63e6; S2R+ cell number, rep 1 = 1.23e6; S2R+ cell number, rep 2 = 1.43e6. MsR1 (GeneID 38298) scored Kc cell number, rep 1 = 1.42e6; Kc cell number, rep 2 = 1.49e6; S2R+ cell number, rep 1 = 9.96e5; S2R+ cell number, rep 2 = 1.26e6. Silencing of CG15020 (GeneID 38544) resulted in: Kc cell number, rep 1 = 1.67e6; Kc cell number, rep 2 = 1.64e6; S2R+ cell number, rep 1 = 1.11e6; S2R+ cell number, rep 2 = 1.19e6. For CG14717 (GeneID 41412), the values are Kc cell number, rep 1 = 1.49e6; Kc cell number, rep 2 = 1.50e6; S2R+ cell number, rep 1 = 1.28e6; S2R+ cell number, rep 2 = 1.35e6.

Records above whose target name starts with C or c:
CG13324 (GeneID 36434) | Kc cell number, rep 1 = 1.51e6; Kc cell number, rep 2 = 1.55e6; S2R+ cell number, rep 1 = 1.28e6; S2R+ cell number, rep 2 = 1.42e6
CG15020 (GeneID 38544) | Kc cell number, rep 1 = 1.67e6; Kc cell number, rep 2 = 1.64e6; S2R+ cell number, rep 1 = 1.11e6; S2R+ cell number, rep 2 = 1.19e6
CG14717 (GeneID 41412) | Kc cell number, rep 1 = 1.49e6; Kc cell number, rep 2 = 1.50e6; S2R+ cell number, rep 1 = 1.28e6; S2R+ cell number, rep 2 = 1.35e6

Further entries follow.
With knock-down of CG12853 (GeneID 50220) the results were Kc cell number, rep 1 = 1.53e6; Kc cell number, rep 2 = 1.58e6; S2R+ cell number, rep 1 = 1.15e6; S2R+ cell number, rep 2 = 1.34e6. Silencing of CG8152 (GeneID 36696) came out at: Kc cell number, rep 1 = 1.62e6; Kc cell number, rep 2 = 1.67e6; S2R+ cell number, rep 1 = 1.41e6; S2R+ cell number, rep 2 = 1.52e6. Depletion of how (GeneID 42596) gave: Kc cell number, rep 1 = 1.09e6; Kc cell number, rep 2 = 1.06e6; S2R+ cell number, rep 1 = 9.33e5; S2R+ cell number, rep 2 = 1.03e6. With knock-down of Prosalpha6 (GeneID 34359), the record shows Kc cell number, rep 1 = 1.08e6 (active); Kc cell number, rep 2 = 1.16e6; S2R+ cell number, rep 1 = 7.02e5; S2R+ cell number, rep 2 = 7.91e5. Silencing of Sgt (GeneID 35052) resulted in: Kc cell number, rep 1 = 1.21e6; Kc cell number, rep 2 = 1.38e6; S2R+ cell number, rep 1 = 1.18e6; S2R+ cell number, rep 2 = 1.30e6. Silencing of CG33235 (GeneID 2768871) came out at: Kc cell number, rep 1 = 1.59e6; Kc cell number, rep 2 = 1.54e6; S2R+ cell number, rep 1 = 1.03e6; S2R+ cell number, rep 2 = 1.11e6.
